# The other results are listed elsewhere or left out.
# Amino acid sequences for entries named in this document (tags omitted). A change or cut given only in a name is not applied to a line headed by its entry.
# UniProt Q9UBP0: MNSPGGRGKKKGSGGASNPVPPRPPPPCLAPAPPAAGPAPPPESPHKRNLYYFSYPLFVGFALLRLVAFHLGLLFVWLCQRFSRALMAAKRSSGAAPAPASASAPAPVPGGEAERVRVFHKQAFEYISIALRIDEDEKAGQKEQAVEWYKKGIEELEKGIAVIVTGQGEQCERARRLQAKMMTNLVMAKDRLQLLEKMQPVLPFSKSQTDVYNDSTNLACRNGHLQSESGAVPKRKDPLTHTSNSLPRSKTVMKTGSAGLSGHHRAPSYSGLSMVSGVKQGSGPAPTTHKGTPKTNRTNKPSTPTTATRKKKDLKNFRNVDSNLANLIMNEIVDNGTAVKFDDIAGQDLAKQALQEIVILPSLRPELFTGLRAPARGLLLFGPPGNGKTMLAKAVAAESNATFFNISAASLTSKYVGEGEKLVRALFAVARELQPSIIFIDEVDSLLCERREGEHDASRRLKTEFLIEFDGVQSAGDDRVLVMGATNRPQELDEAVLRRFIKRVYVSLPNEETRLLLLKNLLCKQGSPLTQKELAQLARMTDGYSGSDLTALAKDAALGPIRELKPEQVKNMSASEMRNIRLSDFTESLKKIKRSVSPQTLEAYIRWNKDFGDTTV
# UniProt Q9UNL2: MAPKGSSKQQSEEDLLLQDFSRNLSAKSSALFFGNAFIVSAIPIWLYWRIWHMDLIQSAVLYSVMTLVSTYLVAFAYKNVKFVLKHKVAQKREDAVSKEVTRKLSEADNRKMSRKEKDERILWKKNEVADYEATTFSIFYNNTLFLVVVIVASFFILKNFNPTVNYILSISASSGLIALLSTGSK
# UniProt Q9BWW4: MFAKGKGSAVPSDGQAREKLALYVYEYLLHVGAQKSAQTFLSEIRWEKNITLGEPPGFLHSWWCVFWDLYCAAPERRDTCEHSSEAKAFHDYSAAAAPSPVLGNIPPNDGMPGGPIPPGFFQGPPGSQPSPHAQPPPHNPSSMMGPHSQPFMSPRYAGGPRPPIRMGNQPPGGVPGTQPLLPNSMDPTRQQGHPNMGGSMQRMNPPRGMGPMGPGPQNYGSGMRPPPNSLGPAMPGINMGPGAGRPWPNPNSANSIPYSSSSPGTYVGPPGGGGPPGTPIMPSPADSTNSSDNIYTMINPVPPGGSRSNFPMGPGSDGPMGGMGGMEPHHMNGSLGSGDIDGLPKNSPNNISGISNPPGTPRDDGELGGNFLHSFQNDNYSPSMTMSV
# UniProt P61009: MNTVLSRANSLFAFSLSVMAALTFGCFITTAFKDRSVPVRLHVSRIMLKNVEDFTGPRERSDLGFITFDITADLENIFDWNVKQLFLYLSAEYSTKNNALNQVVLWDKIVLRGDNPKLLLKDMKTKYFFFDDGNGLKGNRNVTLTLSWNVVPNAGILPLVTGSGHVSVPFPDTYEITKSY
# UniProt O15269: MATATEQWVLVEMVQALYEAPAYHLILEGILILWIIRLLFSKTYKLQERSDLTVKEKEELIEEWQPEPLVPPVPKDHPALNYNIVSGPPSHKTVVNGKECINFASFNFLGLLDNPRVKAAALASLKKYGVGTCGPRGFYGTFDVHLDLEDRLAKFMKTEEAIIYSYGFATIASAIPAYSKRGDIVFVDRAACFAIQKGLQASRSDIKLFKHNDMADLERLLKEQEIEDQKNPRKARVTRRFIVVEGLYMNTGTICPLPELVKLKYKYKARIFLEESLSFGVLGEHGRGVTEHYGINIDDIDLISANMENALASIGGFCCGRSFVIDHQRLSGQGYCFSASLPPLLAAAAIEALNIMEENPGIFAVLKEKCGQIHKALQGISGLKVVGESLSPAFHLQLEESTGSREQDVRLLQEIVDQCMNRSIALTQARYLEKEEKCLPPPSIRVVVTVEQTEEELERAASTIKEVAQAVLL
# UniProt P19623: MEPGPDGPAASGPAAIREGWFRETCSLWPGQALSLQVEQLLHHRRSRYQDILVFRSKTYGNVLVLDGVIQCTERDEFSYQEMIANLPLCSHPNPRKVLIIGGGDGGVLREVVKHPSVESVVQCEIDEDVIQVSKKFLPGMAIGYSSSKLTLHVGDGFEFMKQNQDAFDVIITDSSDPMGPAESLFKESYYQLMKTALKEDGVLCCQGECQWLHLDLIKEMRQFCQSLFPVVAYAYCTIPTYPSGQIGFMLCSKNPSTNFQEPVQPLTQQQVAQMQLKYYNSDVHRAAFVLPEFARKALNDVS
# UniProt P09486: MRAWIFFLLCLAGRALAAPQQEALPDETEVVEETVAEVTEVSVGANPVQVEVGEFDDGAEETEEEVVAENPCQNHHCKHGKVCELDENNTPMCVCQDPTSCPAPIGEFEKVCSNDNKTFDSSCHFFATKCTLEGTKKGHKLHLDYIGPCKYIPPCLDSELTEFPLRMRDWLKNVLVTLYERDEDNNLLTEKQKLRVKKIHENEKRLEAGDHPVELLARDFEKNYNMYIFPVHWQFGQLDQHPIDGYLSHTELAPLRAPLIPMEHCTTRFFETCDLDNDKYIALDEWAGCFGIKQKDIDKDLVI
# UniProt Q13586, whole entry, looked up: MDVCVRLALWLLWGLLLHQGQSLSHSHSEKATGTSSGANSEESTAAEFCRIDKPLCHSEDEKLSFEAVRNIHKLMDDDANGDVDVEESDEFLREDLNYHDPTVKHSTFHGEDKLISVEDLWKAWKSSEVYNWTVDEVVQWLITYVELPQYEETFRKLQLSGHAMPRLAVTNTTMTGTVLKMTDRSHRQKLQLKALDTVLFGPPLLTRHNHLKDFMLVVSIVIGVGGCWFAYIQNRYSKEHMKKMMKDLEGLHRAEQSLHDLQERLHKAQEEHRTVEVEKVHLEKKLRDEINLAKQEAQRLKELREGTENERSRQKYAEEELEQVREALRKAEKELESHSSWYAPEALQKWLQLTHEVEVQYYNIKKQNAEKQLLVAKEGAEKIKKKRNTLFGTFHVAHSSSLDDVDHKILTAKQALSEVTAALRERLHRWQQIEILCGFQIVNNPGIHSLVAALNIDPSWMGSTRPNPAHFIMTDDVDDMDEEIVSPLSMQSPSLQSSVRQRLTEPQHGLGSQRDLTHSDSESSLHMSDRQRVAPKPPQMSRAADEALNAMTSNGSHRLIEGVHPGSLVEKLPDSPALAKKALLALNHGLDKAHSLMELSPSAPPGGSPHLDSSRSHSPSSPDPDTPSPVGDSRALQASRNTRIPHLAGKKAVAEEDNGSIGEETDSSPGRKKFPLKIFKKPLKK
# UniProt P31948, whole entry, looked up: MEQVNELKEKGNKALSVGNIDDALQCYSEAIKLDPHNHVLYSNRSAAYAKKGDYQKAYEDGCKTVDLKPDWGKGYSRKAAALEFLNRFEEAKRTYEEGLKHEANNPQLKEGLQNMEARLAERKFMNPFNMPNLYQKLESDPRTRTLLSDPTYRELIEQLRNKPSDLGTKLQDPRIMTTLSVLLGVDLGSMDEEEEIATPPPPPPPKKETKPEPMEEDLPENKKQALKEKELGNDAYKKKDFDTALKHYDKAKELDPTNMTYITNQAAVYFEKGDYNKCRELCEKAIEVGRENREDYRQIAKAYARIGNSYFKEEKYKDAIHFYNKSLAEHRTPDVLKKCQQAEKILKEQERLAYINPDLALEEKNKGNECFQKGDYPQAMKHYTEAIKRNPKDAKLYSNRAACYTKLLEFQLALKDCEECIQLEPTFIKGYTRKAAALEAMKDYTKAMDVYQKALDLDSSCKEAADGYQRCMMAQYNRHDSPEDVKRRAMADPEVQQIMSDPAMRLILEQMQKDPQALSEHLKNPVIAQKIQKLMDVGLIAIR
# UniProt Q15831: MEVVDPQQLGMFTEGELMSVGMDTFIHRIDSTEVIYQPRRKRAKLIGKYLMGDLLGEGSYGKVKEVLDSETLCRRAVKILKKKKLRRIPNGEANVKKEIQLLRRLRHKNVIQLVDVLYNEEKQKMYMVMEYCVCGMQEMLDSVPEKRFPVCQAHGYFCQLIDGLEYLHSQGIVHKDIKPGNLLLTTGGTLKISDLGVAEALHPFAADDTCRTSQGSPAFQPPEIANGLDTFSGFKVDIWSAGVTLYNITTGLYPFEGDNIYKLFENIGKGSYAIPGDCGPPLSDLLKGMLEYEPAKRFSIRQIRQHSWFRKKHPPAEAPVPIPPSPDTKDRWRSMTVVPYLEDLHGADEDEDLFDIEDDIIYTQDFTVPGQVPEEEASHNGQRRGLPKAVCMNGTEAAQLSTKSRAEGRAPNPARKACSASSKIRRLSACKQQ
# UniProt Q9BYN0: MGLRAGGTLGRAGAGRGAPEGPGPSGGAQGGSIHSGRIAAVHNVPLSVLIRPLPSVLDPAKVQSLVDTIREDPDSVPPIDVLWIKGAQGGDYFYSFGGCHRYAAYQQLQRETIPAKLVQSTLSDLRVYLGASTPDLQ
# UniProt Q8WVM7: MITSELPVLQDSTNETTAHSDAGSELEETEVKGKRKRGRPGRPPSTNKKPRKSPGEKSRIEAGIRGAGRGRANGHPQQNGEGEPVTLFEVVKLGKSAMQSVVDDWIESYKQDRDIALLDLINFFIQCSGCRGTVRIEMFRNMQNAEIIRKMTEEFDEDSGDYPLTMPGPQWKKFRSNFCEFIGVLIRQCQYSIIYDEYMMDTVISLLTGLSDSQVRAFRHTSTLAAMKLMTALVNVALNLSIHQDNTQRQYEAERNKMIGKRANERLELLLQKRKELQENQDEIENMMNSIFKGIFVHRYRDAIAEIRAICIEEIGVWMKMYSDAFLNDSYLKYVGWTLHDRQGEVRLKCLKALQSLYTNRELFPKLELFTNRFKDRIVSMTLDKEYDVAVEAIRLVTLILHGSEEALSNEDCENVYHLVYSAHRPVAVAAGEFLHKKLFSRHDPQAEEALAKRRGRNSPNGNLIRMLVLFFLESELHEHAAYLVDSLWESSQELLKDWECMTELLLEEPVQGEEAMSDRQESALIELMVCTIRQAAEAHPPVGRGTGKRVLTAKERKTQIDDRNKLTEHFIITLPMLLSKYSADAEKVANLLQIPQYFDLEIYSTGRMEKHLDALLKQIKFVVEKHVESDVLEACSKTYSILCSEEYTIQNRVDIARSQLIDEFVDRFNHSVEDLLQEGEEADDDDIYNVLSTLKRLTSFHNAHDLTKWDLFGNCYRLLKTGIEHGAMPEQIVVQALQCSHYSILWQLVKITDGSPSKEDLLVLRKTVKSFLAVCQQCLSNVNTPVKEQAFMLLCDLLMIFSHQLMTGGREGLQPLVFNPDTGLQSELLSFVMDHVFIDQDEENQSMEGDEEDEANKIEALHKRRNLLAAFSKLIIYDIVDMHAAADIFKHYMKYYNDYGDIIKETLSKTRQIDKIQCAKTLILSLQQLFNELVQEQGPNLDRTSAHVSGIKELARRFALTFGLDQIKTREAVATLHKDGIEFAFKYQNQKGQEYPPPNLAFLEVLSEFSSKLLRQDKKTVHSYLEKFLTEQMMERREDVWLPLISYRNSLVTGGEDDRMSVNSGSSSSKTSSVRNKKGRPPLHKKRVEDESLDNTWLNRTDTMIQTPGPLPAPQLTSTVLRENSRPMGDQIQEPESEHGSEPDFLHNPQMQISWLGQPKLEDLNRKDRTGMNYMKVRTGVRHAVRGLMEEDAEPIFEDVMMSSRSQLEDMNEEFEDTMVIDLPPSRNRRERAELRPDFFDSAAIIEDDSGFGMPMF
# UniProt Q8NBT2: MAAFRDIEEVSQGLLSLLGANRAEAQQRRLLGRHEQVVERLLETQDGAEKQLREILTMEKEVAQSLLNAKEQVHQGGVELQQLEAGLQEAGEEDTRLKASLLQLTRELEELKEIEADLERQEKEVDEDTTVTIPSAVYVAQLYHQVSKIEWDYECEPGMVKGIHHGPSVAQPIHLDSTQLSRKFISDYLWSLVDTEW
# UniProt P16150: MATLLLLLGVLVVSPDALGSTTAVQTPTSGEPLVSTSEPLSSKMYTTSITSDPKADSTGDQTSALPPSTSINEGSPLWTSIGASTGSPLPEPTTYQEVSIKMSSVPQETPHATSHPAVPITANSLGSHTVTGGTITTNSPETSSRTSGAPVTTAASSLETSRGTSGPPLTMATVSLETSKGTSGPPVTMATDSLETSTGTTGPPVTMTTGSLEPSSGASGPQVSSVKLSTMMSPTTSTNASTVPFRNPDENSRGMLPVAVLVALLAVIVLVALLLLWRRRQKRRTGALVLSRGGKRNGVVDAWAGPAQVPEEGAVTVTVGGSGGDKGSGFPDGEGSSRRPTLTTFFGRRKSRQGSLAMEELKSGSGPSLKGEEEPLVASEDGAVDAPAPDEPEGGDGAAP
# UniProt Q9HD15: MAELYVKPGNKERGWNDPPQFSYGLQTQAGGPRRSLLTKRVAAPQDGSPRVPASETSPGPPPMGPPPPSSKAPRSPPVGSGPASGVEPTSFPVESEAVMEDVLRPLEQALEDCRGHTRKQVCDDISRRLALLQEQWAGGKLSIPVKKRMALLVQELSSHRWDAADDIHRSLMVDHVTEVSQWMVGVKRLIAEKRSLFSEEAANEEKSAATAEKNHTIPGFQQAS
# UniProt Q13243: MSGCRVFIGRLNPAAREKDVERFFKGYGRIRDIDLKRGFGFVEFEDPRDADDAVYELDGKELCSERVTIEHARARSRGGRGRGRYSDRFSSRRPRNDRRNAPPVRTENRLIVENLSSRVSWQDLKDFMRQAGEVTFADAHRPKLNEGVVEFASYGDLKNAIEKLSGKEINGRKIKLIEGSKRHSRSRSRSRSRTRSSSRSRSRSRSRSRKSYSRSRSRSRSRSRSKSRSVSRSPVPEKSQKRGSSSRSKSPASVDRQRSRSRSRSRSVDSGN
# Tests used:
# Experiment in all cases: log2 fold change, soluble protein after heating vs DMSO (PISA); higher = thermal stabilisation; K562 cells, 10 uM, 30 min; active = over 0.2 and 3.5 SD of the protein, either way, in both replicates (recomputed)
# [1] = compound: NC(=O)Nc1cc(-c2cccc(F)c2)sc1C(=O)N[C@H]1CCCNC1
# Summary of the method: (§1)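 Values are thermal stability changes relative to control samples and are taken from duplicates. They are stated as log2 fold changes. Before quantification by TMTpro 16plex LC-MS/MS with equalised channel sums, K562 cells at 2×10^6 cells/mL were treated with 10 μM compound for 30 min, heated in aliquots for 3 min across 48°C-58°C, pooled, extracted in PBS with 0.5% NP-40 at 4°C, and centrifuged at 21,000xg for 90 min to give the soluble supernatant.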
# [2] = compound: NC(=O)c1cnc(N[C@@H]2CCCC[C@@H]2N)nc1Nc1cccc(-n2nccn2)c1
# Summary of the method: as §1
# [3] = compound: NC1(c2ccc(-c3nc4ccn5c(=O)[nH]nc5c4cc3-c3ccccc3)cc2)CCC1
# Summary of the method: as §1
# [4] = compound: NCC(=O)Nc1ccc(-n2nc(C(F)(F)F)cc2-c2ccc3c(ccc4ccccc43)c2)cc1
# Summary of the method: as §1
# entinostat = compound: Nc1ccccc1NC(=O)c1ccc(CNC(=O)OCc2cccnc2)cc1 [entinostat]
# Summary of the method: as §1
# vorinostat = compound: O=C(CCCCCCC(=O)Nc1ccccc1)NO [vorinostat]
# Summary of the method: as §1
# citarinostat = compound: O=C(CCCCCCNC(=O)c1cnc(N(c2ccccc2)c2ccccc2Cl)nc1)NO [citarinostat]
# Summary of the method: as §1
# silmitasertib = compound: O=C(O)c1ccc2c(c1)nc(Nc1cccc(Cl)c1)c1ccncc12 [silmitasertib]
# Summary of the method: as §1
# [5] = compound: O=C1NC(=O)C(c2cnc3ccccn23)=C1c1cn2c3c(cc(F)cc13)CN(C(=O)N1CCCCC1)CC2
# Summary of the method: as §1
# [6] = compound: c1cc(OCCN2CCCCC2)cc(-c2n[nH]c3ccc(-c4nnc[nH]4)cc23)c1
# Summary of the method: as §1
# entospletinib = compound: c1cn2cc(-c3ccc4cn[nH]c4c3)nc(Nc3ccc(N4CCOCC4)cc3)c2n1 [entospletinib]
# Summary of the method: as §1
Target,log2 fold change [1],log2 fold change [2],log2 fold change [3],log2 fold change [4],log2 fold change (entinostat),log2 fold change (vorinostat),log2 fold change (citarinostat),log2 fold change (silmitasertib),log2 fold change [5],log2 fold change [6],log2 fold change (entospletinib)
SPAST (UniProt Q9UBP0),inactive: 0.027,inactive: -0.003,inactive: -0.12,inactive: -0.109,inactive: 0.075,inactive: 0.033,inactive: 0.058,inactive: 0.028,inactive: -0.035,inactive: -0.029,–
SSR3 isoform 2 (UniProt Q9UNL2),inactive: -0.056,inactive: 0.18,inactive: -0.056,active: 0.369,inactive: -0.04,inactive: 0,inactive: 0.068,inactive: 0,inactive: -0.028,inactive: -0.114,–
SRRT (UniProt Q9BXP5),inactive: -0.052,inactive: -0.086,inactive: -0.218,inactive: -0.124,inactive: 0.187,inactive: 0.171,inactive: 0.137,inactive: -0.097,inactive: -0.073,inactive: 0.016,inactive: -0.037
SSBP3 (UniProt Q9BWW4),inactive: 0.022,inactive: 0.109,inactive: 0.02,inactive: -0.002,inactive: 0.052,inactive: -0.168,inactive: 0,inactive: 0.015,inactive: -0.049,inactive: -0.031,inactive: 0.045
SPCS3 (UniProt P61009),inactive: 0.009,inactive: -0.009,inactive: -0.024,inactive: 0.007,inactive: -0.059,inactive: -0.009,inactive: -0.002,inactive: 0.017,inactive: -0.059,inactive: 0.035,inactive: -0.023
SPTLC1 (UniProt O15269),inactive: 0.021,inactive: 0.014,inactive: -0.066,inactive: -0.04,inactive: 0.032,inactive: -0.011,inactive: 0.058,inactive: 0.002,inactive: -0.031,inactive: -0.009,inactive: -0.009
ST13 (UniProt P50502),inactive: 0.001,inactive: -0.053,inactive: -0.124,inactive: -0.055,inactive: 0.025,inactive: -0.007,inactive: 0.008,inactive: -0.004,inactive: -0.034,inactive: -0.03,inactive: 0.015
SRM (UniProt P19623),inactive: -0.03,inactive: -0.059,inactive: -0.146,inactive: -0.039,inactive: -0.006,inactive: 0.004,inactive: 0.012,inactive: -0.034,inactive: -0.027,inactive: -0.049,inactive: 0.086
SPARC (UniProt P09486),inactive: -0.124,inactive: -0.143,inactive: -0.042,inactive: 0.075,inactive: -0.131,inactive: 0.05,inactive: -0.013,inactive: 0.076,inactive: 0.027,inactive: 0,inactive: 0.005
SPG7 (UniProt Q9UQ90),inactive: -0.047,inactive: -0.041,inactive: -0.067,inactive: 0.012,inactive: 0.009,inactive: 0.02,inactive: 0.011,inactive: 0.001,inactive: -0.03,inactive: -0.025,inactive: 0.012
STIM1 (UniProt Q13586),inactive: -0.032,inactive: -0.074,inactive: -0.075,inactive: -0.117,inactive: 0.011,inactive: 0.022,inactive: -0.013,inactive: 0.007,inactive: -0.054,inactive: -0.04,–
STAT1 (UniProt P42224),inactive: 0.119,inactive: -0.202,inactive: 0.162,inactive: 0.077,inactive: 0.012,inactive: 0.046,inactive: -0.03,inactive: 0.242,inactive: 0.251,inactive: -0.087,inactive: 0.301
STIP1 isoform 2 (UniProt P31948),inactive: 0.05,inactive: -0.027,inactive: -0.02,inactive: -0.02,inactive: 0.026,inactive: -0.011,inactive: 0.037,inactive: -0.021,inactive: -0.037,inactive: -0.005,inactive: -0.014
STK11 (UniProt Q15831),inactive: -0.035,inactive: 0.119,inactive: -0.022,inactive: 0.05,inactive: -0.001,inactive: -0.057,inactive: 0.054,inactive: -0.022,inactive: -0.056,inactive: -0.047,inactive: -0.04
SPTA1 (UniProt P02549),inactive: 0.023,inactive: -0.096,inactive: 0.016,inactive: 0.017,inactive: 0.062,inactive: 0.061,inactive: 0.038,inactive: 0.215,inactive: 0.164,inactive: -0.067,inactive: 0.185
SPINDOC (UniProt Q9BUA3),inactive: 0.09,inactive: 0.003,inactive: 0.014,inactive: -0.061,inactive: -0.188,inactive: -0.014,inactive: -0.106,inactive: -0.061,inactive: -0.102,inactive: 0.053,–
SRPK1 (UniProt Q96SB4),inactive: 0.256,inactive: 0.068,inactive: 0.199,inactive: 0.127,inactive: -0.012,inactive: -0.026,inactive: -0.119,inactive: 0.131,inactive: 0.258,inactive: -0.266,inactive: 0.052
SRXN1 (UniProt Q9BYN0),inactive: -0.013,inactive: -0.364,inactive: -0.024,inactive: -0.021,inactive: -0.053,inactive: -0.24,inactive: -0.039,inactive: -0.059,inactive: -0.111,inactive: 0.09,–
STAG1 (UniProt Q8WVM7),inactive: -0.017,inactive: -0.071,inactive: -0.075,inactive: -0.022,inactive: -0.007,inactive: 0.118,inactive: 0.142,inactive: -0.056,inactive: -0.062,inactive: -0.1,inactive: -0.04
SPC24 (UniProt Q8NBT2),inactive: 0.038,inactive: 0.031,inactive: -0.092,inactive: 0.025,inactive: 0.091,inactive: 0.095,inactive: 0.038,inactive: 0.036,inactive: -0.059,inactive: 0,inactive: -0.018
SRP19 (UniProt P09132),inactive: -0.037,inactive: 0.007,inactive: -0.048,inactive: -0.025,inactive: 0.008,inactive: 0.027,inactive: -0.011,inactive: 0.098,inactive: -0.039,inactive: -0.018,inactive: -0.051
SPN (UniProt P16150),inactive: -0.003,inactive: 0.044,inactive: 0.087,inactive: 0.031,inactive: -0.059,inactive: -0.058,inactive: -0.016,inactive: -0.056,inactive: -0.068,inactive: -0.006,inactive: -0.073
SRA1 (UniProt Q9HD15),inactive: -0.033,inactive: -0.035,inactive: -0.034,inactive: -0.026,inactive: -0.003,inactive: 0.002,inactive: 0.086,inactive: -0.022,inactive: -0.107,inactive: -0.063,inactive: 0.029
SRGAP2 (UniProt O75044),inactive: 0.038,inactive: -0.028,inactive: -0.006,inactive: -0.026,inactive: 0.049,inactive: -0.043,inactive: 0.013,inactive: 0.051,inactive: 0.02,inactive: -0.034,inactive: 0.06
SPATA5 (UniProt Q8NB90),inactive: 0.02,inactive: 0.008,inactive: 0.033,inactive: 0.028,inactive: -0.035,inactive: -0.013,inactive: -0.022,inactive: 0.007,inactive: 0.015,inactive: -0.034,inactive: -0.012
SRSF5 (UniProt Q13243),inactive: -0.048,inactive: 0.31,inactive: 0.309,inactive: 0.032,inactive: -0.078,inactive: -0.036,inactive: -0.056,inactive: 0.031,inactive: 0.154,inactive: -0.21,inactive: 0.12

# Complete entries, quoted from the list. Order of values: log2 fold change [1]	log2 fold change [2]	log2 fold change [3]	log2 fold change [4]	log2 fold change (entinostat)	log2 fold change (vorinostat)	log2 fold change (citarinostat)	log2 fold change (silmitasertib)	log2 fold change [5]	log2 fold change [6]	log2 fold change (entospletinib)
# SRPK1 (UniProt Q96SB4) in the list: inactive: 0.256	inactive: 0.068	inactive: 0.199	inactive: 0.127	inactive: -0.012	inactive: -0.026	inactive: -0.119	inactive: 0.131	inactive: 0.258	inactive: -0.266	inactive: 0.052
# SPTA1 (UniProt P02549) in the list: inactive: 0.023	inactive: -0.096	inactive: 0.016	inactive: 0.017	inactive: 0.062	inactive: 0.061	inactive: 0.038	inactive: 0.215	inactive: 0.164	inactive: -0.067	inactive: 0.185
